Measurements as given in paper PMC11063194.
No constants are given. Whether binding was seen depends on the method and setting. In cells and extracts the contact can be indirect. Some entries that bind do so weakly or less than the wild type. Where a sequence is shown, tags or fusion partners need not be part of it.

Biological target: T1, Carnitine palmitoyl transferase 1 A (CPT1A), HA-tagged (HA-CPT1A) (UniProt P50416)
T1 sequence: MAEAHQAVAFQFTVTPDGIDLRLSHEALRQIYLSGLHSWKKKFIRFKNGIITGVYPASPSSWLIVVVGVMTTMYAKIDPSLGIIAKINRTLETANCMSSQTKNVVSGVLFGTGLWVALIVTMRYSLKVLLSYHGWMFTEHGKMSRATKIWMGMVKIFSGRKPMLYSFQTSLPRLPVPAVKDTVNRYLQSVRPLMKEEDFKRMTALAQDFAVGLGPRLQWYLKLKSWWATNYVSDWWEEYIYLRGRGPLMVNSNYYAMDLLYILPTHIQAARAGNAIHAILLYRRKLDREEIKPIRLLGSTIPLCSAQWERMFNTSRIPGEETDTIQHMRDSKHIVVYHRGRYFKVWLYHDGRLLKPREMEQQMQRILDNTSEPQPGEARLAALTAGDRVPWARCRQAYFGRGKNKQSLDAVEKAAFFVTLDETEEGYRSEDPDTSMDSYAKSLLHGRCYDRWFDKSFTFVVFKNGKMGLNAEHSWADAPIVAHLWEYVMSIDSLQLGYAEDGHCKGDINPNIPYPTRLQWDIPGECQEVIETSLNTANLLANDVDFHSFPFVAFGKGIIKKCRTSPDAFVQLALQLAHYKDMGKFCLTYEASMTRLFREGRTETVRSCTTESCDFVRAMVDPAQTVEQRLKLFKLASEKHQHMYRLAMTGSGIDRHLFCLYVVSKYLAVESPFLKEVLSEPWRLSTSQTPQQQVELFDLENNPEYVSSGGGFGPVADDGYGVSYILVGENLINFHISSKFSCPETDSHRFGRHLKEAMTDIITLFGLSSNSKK
Experiment: co-IP; exogenous IP and Co-IP in 293 T and C33A cells; lysis in NP-40 buffer with phosphatase and protease inhibitors; lysates incubated with HA/Flag beads overnight at 4 °C; washed 4 times with NETN buffer; Western blotting

- binding: binds
B1: Transmembrane 7 superfamily member 2 (TM7SF2), Flag-tagged (Flag-TM7SF2) (enzyme, UniProt O76062 1-418)
chain: MAPTQGPRAPLEFGGPLGAAALLLLLPATMFHLLLAARSGPARLLGPPASLPGLEVLWSPRALLLWLAWLGLQAALYLLPARKVAEGQELKDKSRLRYPINGFQALVLTALLVGLGMSAGLPLGALPEMLLPLAFVATLTAFIFSLFLYMKAQVAPVSALAPGGNSGNPIYDFFLGRELNPRICFFDFKYFCELRPGLIGWVLINLALLMKEAELRGSPSLAMWLVNGFQLLYVGDALWHEEAVLTTMDITHDGFGFMLAFGDMAWVPFTYSLQAQFLLHHPQPLGLPMASVICLINATGYYIFRGANSQKNTFRKNPSDPRVAGLETISTATGRKLLVSGWWGMVRHPNYLGDLIMALAWSLPCGVSHLLPYFYLLYFTALLVHREARDERQCLQKYGLAWQEYCRRVPYRIMPYIY
